This is one part of the list.

By UniProt entry, the sequences of proteins in these tests, tags left out.
UniProt Q0JBA9, entry or part of it: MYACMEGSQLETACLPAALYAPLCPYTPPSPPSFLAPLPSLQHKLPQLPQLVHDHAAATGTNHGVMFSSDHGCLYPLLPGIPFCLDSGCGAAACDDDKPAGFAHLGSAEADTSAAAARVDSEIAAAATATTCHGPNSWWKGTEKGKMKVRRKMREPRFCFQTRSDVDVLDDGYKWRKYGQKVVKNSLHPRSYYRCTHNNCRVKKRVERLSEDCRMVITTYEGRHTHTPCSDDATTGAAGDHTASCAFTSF

This test has as its target OsWRKY34 (Oryza sativa, UniProt Q0JBA9 1-250). Description: protein-binding microarray (RPBM); PBS, 2% BSA, 51.3 ng/ul salmon testes DNA, 50 uM zinc acetate, 200 nM TF, 25 C, 1 h; high values mean tight binding. Conditions: protein: recombinant; tags: N-terminal polyhistidine and DsRed monomer fusion (pET32a); label: CyDye5-dUTP incorporated in the synthesized complementary strand; 3' TTTTT single-stranded linker to array surface; dsDNA, one strand shown. The method, boiled down:
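Transcription factors were made in E. coli BL21-CodonPlus as N-terminal fusions to a polyhistidine tag and DsRed, then purified on Ni–NTA. After primer extension with Cy5-dUTP and blocking with 2% BSA, a custom Agilent array was exposed for 1 h at 25 °C to 200 nM protein in PBS, 2% BSA, salmon testes DNA and 50 µM zinc acetate. Washed arrays were scanned on an Axon 4000B, and the binding signal is per-feature fluorescence intensity in arbitrary units.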
“TTGTGGGTCTCCTATTTTTGGGGTTGATCTTCCTCCTTCCCGGAGTCACCTAGTGCAG”: the binding signal is 9420 fluorescence intensity (a.u.).
For the sequence “GTTTCTCTTTTATCCTACTAACTACTCCACTAATTGATTTCGGAGTCACCTAGTGCAG”, the binding signal was 8490 fluorescence intensity (a.u.).
For the sequence “CACCCTTATTTATTGGTTTTTTTGCTTTTGGTCGGTGTTTCGGAGTCACCTAGTGCAG”, the binding signal is 10100 fluorescence intensity (a.u.).
Under “ACTACCACACCGACCCGAGCCAGCTCCCTTCATTCATCTCCGGAGTCACCTAGTGCAG” stands 11500 fluorescence intensity (a.u.); under “ATCATATCCACACACACACATCTTCCTAAACTACATTTTACGGAGTCACCTAGTGCAG”, 8110 fluorescence intensity (a.u.); under “AGGTTTGAGTACTCATTTTGCAACTTAGCGTATATTTTTACGGAGTCACCTAGTGCAG”, 8860 fluorescence intensity (a.u.).
With “TGTTCGATCTCCTGCCCAGGCACGCGCTTGCCATCGTAACCGGAGTCACCTAGTGCAG” the figure was 8120 fluorescence intensity (a.u.); with “AACTTTTCCGTCACATCGTTTCAATTTCAATCAAACTTTCCGGAGTCACCTAGTGCAG”, 10300 fluorescence intensity (a.u.); with “GACCGCTGCACTTTCATCAACCCGTCCTCTACGAACTCATCGGAGTCACCTAGTGCAG”, 8240 fluorescence intensity (a.u.).
Under “TTATGGGGATCTCATCCTTTCTTATTTTTCTTCGTTTCATCGGAGTCACCTAGTGCAG” stands 9640 fluorescence intensity (a.u.); under “TCCCATTCAATATCTTCTGCTGTATTTCTGCAAGTAAAAACGGAGTCACCTAGTGCAG”, 8130 fluorescence intensity (a.u.).
For “TAGTTACATATTACACTATTAATACCTAGTCCCATCTGTCCGGAGTCACCTAGTGCAG”, the binding signal was 9340 fluorescence intensity (a.u.).
Under “CATTCGTTTTTCCATCTGCCCAATGTTTTTTCTCGTACTCCGGAGTCACCTAGTGCAG” stands 10200 fluorescence intensity (a.u.).
With “CTCTCTACCGGCTTAACCACTTTGCCACTTTGGCCTTTCACGGAGTCACCTAGTGCAG” the figure was 8160 fluorescence intensity (a.u.).
Under “TGATGCCGTTGACTTTTTCTCATATGTTTGACCATTCGTCCGGAGTCACCTAGTGCAG” stands 44800 fluorescence intensity (a.u.).
For the sequence “CCGATGATAGCTCTCGATTTAGTGGCCGCCGCAAGACTTCCGGAGTCACCTAGTGCAG”, the binding signal is 8240 fluorescence intensity (a.u.).
Under “GCGAATCCTATCAACTTGCGTTTGGTCGGCTAATTCTAACCGGAGTCACCTAGTGCAG” stands 9380 fluorescence intensity (a.u.); under “CCATCTCCTCCATTGCCGTCGTTTGAAATTCAGGTAGAACCGGAGTCACCTAGTGCAG”, 8120 fluorescence intensity (a.u.); under “TTGCACCAATAAATACACCCTTGGTCAACACGGATGCTTTCGGAGTCACCTAGTGCAG”, 8900 fluorescence intensity (a.u.).
In the case of “CGGTGAACGAGGAGGTGCTGGGGCTGGTGGTGTTCAAGTCCGGAGTCACCTAGTGCAG”, the binding signal was 8970 fluorescence intensity (a.u.).
Under “AGATCGCGCTTCCACGGTTCCACCTACACCGCATCACGTGCGGAGTCACCTAGTGCAG” stands 9760 fluorescence intensity (a.u.); under “ATTTATTTTGGGATGGGGAGGGAGACAACTACAGTGTTTCCGGAGTCACCTAGTGCAG”, 18200 fluorescence intensity (a.u.); under “GAGCGCGCGCGTTGGGCGGGAGGGGTTTGGTTGGTGAGCGCGGAGTCACCTAGTGCAG”, 11800 fluorescence intensity (a.u.).
Under “CGGCGTCGACTCCTCCTGACTTCGCCCGCCGACTCCGCCGCGGAGTCACCTAGTGCAG” stands 8410 fluorescence intensity (a.u.).
As to “CTAGTGCTTTGCCTTTTTATATTGGAGTTGCAAAGATTCCCGGAGTCACCTAGTGCAG”, the binding signal was 8510 fluorescence intensity (a.u.).
“GCATTGTCACACACTCCTGACTACCCTGCAACTGTTTTTTCGGAGTCACCTAGTGCAG”: the binding signal is 8970 fluorescence intensity (a.u.).
With “AATTGGCTGAGTGAGGTAGTTTTGTTTTGCCCAGTTATCACGGAGTCACCTAGTGCAG” the figure was 11600 fluorescence intensity (a.u.); with “CTCTCTCTCTCTCTCTCTCTCGGCTTTGGTTTGCCGCGTTCGGAGTCACCTAGTGCAG”, 14100 fluorescence intensity (a.u.); with “TGTCTCTACTGTTTTATCTCCTCGACATATGTTTATATCTCGGAGTCACCTAGTGCAG”, 9220 fluorescence intensity (a.u.).
With “GAATCAAGTCAACCTGCCACATCAGCCTAAACCACTTACACGGAGTCACCTAGTGCAG” the figure was 9310 fluorescence intensity (a.u.).
“TGGTACACTTCCATTGCTTCCTAAAACCATCATGACATCTCGGAGTCACCTAGTGCAG”: the binding signal is 10400 fluorescence intensity (a.u.).
With “TATTACTTCCTTCGTTTCAAAATGTTTGATACCGTTGACTCGGAGTCACCTAGTGCAG” the figure was 12000 fluorescence intensity (a.u.).
With “GTATTTATTTTTCTTTCCTGCCCTTGATATTATTTATTATCGGAGTCACCTAGTGCAG” the figure was 8240 fluorescence intensity (a.u.); with “ACTTCCCCTTTCTTTTGTGACGTGCTATTCAGTTCTCTTTCGGAGTCACCTAGTGCAG”, 9640 fluorescence intensity (a.u.); with “GTGCCTTTTTGTTGTGTTTGGATTGCATCTGTAGCTCCATCGGAGTCACCTAGTGCAG”, 10900 fluorescence intensity (a.u.).
As for “TTTCTCGTCTATTCATTTTCCCAGACATGCTTTTTAAAAACGGAGTCACCTAGTGCAG”, the binding signal is 8300 fluorescence intensity (a.u.).
Under “CGTCCCTCACCACATTCGCTGTCGCCGTCCTCCGCACCCTCGGAGTCACCTAGTGCAG” stands 10700 fluorescence intensity (a.u.).
With “TTAATTTTTTTCTCATTTGTGCGTCCTATGGTCAAGCGTCCGGAGTCACCTAGTGCAG” the figure was 8490 fluorescence intensity (a.u.).
Regarding “CCCTCCTCGTCCGCTCGTCATCCTCGACTTGACCCTCGACCGGAGTCACCTAGTGCAG”, the binding signal was 10100 fluorescence intensity (a.u.).
Consider “TGGGTGGTATGGTAGGGCCCTGATTGTGTTGGTCCTTTTGCGGAGTCACCTAGTGCAG”, for which the binding signal was 11400 fluorescence intensity (a.u.).
With “ATGGCATTATTTTTTTCTCCCATCTCTCTTTCTCTCACTACGGAGTCACCTAGTGCAG” the figure was 8370 fluorescence intensity (a.u.).
Take “CCTTTTTCACCTTAACTAATCACATCATTTTTCATTTAATCGGAGTCACCTAGTGCAG”: the binding signal is 8270 fluorescence intensity (a.u.).
With “CACATCACACCACTGCATACCTGTATTCCATCGAACAACCCGGAGTCACCTAGTGCAG” the figure was 8860 fluorescence intensity (a.u.); with “TCTTTGTCTCATTATCTGCAACGTGCCCACCCACCAGTCCCGGAGTCACCTAGTGCAG”, 9360 fluorescence intensity (a.u.); with “TGGCCACGGCGACGACATGGCCGCCCACCACTGTTCAACCCGGAGTCACCTAGTGCAG”, 8910 fluorescence intensity (a.u.).
With “CTTATAGCCTACTATTATGCCTGCTCTGAGCACCTCTATTCGGAGTCACCTAGTGCAG”, the binding signal was 8690 fluorescence intensity (a.u.).
Under “TAGTCCTTGTCGTTTCCATGTAGAACTCTGGTTGTCTTTCCGGAGTCACCTAGTGCAG” stands 9720 fluorescence intensity (a.u.).
With “GATACTGTTTTCGCAAAACTAATACTCCCTCCGTTTTTTACGGAGTCACCTAGTGCAG” the figure was 8610 fluorescence intensity (a.u.).
With “CGGTCACCTCCTCCACCTCCTCCCGCACCGCCGCCCGCCACGGAGTCACCTAGTGCAG” the figure was 9180 fluorescence intensity (a.u.); with “CATAGAAGTTGCATTGCTCTGTCCTTGTCTCTGCTCTGCCCGGAGTCACCTAGTGCAG”, 9920 fluorescence intensity (a.u.); with “GGGGAGGGAAGGGATGGATCGGATGCGGGTTCGGGCGGTTCGGAGTCACCTAGTGCAG”, 8910 fluorescence intensity (a.u.).
Consider “GCTGTCGTCTCTCGCCACCGCATACCGCCCACCCAACCCACGGAGTCACCTAGTGCAG”, for which the binding signal was 11500 fluorescence intensity (a.u.).
Under “ATATCTCTTCGTTCCTTTTGCGACAGCATCGGCGTACCAGCGGAGTCACCTAGTGCAG” stands 9330 fluorescence intensity (a.u.).
Under “ATGGGTGGAAAATTTGGAGATTGACCTGTTGACTTAGGGTCGGAGTCACCTAGTGCAG” stands 8940 fluorescence intensity (a.u.).

Values taken from publication PMC7819943, “Rice protein-binding microarrays: a tool to detect cis-acting elements near promoter regions in rice”.
